Laboratory results reported in patent publication US20140227292A1 (PROTHENA BIOSCIENCES, published 2014).
No constants are given. Whether binding was seen depends on the method and setting. Some entries that bind do so weakly or less than the wild type. For some of these results: Sequences can lack the tags named with a protein.

Tests used:
[1] = target: T1, human MCAM (melanoma cell adhesion molecule), expressed on transfected CHO cells (human) (UniProt P43121); assay: flow cytometry on MCAM transfected cells
T1 sequence: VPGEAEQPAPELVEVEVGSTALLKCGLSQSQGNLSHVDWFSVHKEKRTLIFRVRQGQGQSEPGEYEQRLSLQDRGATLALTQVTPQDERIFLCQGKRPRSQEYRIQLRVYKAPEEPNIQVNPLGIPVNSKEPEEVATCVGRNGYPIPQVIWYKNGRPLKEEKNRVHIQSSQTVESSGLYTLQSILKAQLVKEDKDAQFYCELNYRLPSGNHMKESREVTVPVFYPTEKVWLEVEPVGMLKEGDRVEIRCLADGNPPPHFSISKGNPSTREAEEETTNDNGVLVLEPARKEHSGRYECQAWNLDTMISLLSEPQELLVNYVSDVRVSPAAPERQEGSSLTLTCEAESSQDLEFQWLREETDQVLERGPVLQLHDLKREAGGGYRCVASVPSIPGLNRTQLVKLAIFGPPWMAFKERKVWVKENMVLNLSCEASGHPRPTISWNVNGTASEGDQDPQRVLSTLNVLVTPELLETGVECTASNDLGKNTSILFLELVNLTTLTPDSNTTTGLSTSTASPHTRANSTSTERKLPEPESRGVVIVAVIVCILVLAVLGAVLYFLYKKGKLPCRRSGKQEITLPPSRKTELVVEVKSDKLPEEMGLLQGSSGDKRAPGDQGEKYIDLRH

[2] = target: T2, Murine MCAM domain 1 (Ig1) with human IgG Fc tag (mouse; human) (UniProt Q8R2Y2); assay: ForteBio Octet Red, Fc-tagged domains on anti-human IgG Fc sensors
T2 sequence (looked up): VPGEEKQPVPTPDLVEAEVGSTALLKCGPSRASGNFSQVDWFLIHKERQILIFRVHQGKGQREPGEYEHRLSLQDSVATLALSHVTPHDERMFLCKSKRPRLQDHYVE

[3] = target: T3, Murine MCAM domain 1 and 2 (Ig1-2A) with human IgG Fc tag (mouse; human) (UniProt Q8R2Y2); assay: as above
T3 sequence (looked up): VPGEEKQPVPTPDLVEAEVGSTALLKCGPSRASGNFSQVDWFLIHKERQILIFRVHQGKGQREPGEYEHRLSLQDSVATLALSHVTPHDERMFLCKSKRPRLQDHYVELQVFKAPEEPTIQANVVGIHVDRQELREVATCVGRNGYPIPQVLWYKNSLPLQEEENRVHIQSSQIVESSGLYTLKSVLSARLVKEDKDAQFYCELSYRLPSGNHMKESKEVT

[4] = target: T2, Murine MCAM domain 1 (Ig1) with human IgG Fc tag (mouse; human); assay: non-denaturing Western blot on individual Fc domains of MCAM; confirmed by ForteBio

binding [1]: binds | binding [2]: binds | binding [3]: binds | binding [4]: binds
B1: anti-MCAM monoclonal antibody clone 17 (antibody, V domains shown)
VH: EVQLVESGGGLVQPGRSLKLSCAASGFTFSNYYMAWVRQAPTKGLEWVASISFEGNRNHYGDSVKGRITISRDNAKSTLYLQMTSLRPEDTATYYCARHRGYSTNFYHDVLDAWGQGALVTVSS
VL: DVQMTQSPSYLATSPGESVSISCKASKNIDTYLAWYQEKPGKTNKLLIYSGSTLQSGTPSRFSGSGSGTDFTLTIRNLESEDFAVYYCQQHNEYPLTFGSGTKLEIKR
